These are literature values, as cited in paper PMC9246766 (Pharmaceutical research, 2022).

The term Cmax denotes the highest concentration seen after dosing.

The conditions of this series: total maximum plasma concentration; ref http://www.micromedexsolutions.com/; cited from earlier work.

Consider `CCCNCC(O)COc1ccccc1C(=O)CCc1ccccc1` (stereo not shown) [propafenone], for which the Cmax is 7.9 µM.
